Record: PubChem BioAssay AID1671195 (Yale University, 2021)
In all, the deposit lists about 22,000 reagents; below is an unselected part. About 1,510 of all reagents (6.9%) count as active. 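Active includes knockdowns raising or lowering LDL uptake; positive z-scores mean more uptake, negative mean less.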

Assay: 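Knockdowns that increase or decrease uptake of fluorescent LDL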 (primary screen)
Cells: human Huh7 hepatoma cells
Reagents: siRNA pool against human genes, 18 nM
Timing: about 2 to 2.5 days of knockdown, then 8 h LDL uptake
Challenge: DiI-labelled LDL at 30 µg/ml for 8 h, in lipoprotein-deficient serum medium
Detection: 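Fluorescent LDL signal imaged in cells, scaled to the plate median, robust z-score for each replicate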
Direction: robust z-score: higher = more LDL uptake after knockdown
Active means: 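a gene counts as active if at least two replicate z-scores exceed ±2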

no.	gene symbol	PubChem SID	robust z-score, replicate 1	robust z-score, replicate 2	robust z-score, replicate 3	call
1	DNAJC13	SID442890781	0.29	0.129	0.689	inactive
2	LOC400756 (retired record)	SID442895831	-0.084	-0.452	-0.095	inactive
3	CCDC125	SID442886468	0.836	1.25	1.37	inactive
4	LOC730218	SID442897911	-0.417	-0.725	-0.172	inactive
5	LOC400790 (retired record)	SID442904191	-1.38	-1.34	-1.84	inactive
6	LOC402188 (retired record)	SID442900924	-0.716	-0.76	-1	inactive
7	MMP15	SID442898079	-1.03	-0.831	0.483	inactive
8	YWHAH	SID442901749	-0.759	-1.44	-0.656	inactive
9	LOC441233 (retired record)	SID442886023	1.51	0.947	1.41	inactive
10	TRIM51	SID442899647	-1.26	-0.511	-0.181	inactive
11	KCNC4	SID442900734	-0.751	-0.977	-0.672	inactive
12	PRTFDC1	SID442883379	3.5	2.18	3.56	active
13	TNFRSF21	SID442899996	-0.913	-1.52	0.349	inactive
14	LINC01120	SID442890994	0.102	0.371	0.558	inactive
15	ZFP30	SID442894385	0.598	-0.425	-0.349	inactive
16	LOC441336 (retired record)	SID442891212	0.593	0.231	0.124	inactive
17	CC2D2A	SID442898537	-1.47	-1.07	1.01	inactive
18	PAFAH2	SID442895507	-0.277	-0.165	-0.0856	inactive
19	ZNF688	SID442898331	-0.464	-0.897	-0.0975	inactive
20	UAP1	SID442886503	1.04	1.31	1.08	inactive
21	KCNK5	SID442893269	0.169	-0.579	0.619	inactive
22	LINC00466	SID442883790	2.05	2.81	2.11	active
23	LOC440967 (retired record)	SID442899069	-0.859	-0.47	-0.39	inactive
24	SKINT1L	SID442893161	0.267	-0.0229	0.00194	inactive
25	LOC442466 (retired record)	SID442887148	1.5	1.47	-0.0455	inactive
26	DPH6	SID442892447	-0.0986	0.168	0.429	inactive
27	C9orf85	SID442896574	-0.0678	-0.214	-0.584	inactive
28	NPAS4	SID442883278	3.55	3.59	3.3	active
29	OXGR1	SID442895684	-0.426	0.13	-0.289	inactive
30	H2AZP2	SID442887912	0.628	0.996	0.829	inactive
31	CPLANE2	SID442885079	2.58	1.26	1.24	inactive
32	WDR5	SID442886530	1.08	1.05	1.28	inactive
33	BCLAF3	SID442900031	-0.824	-0.871	-0.412	inactive
34	RFT1	SID442886617	1.56	0.923	0.838	inactive
35	CCR6	SID442886232	1.78	0.411	1.47	inactive
36	RABEP2	SID442901454	-0.827	-1.02	-0.863	inactive
37	CBFA2T2	SID442886053	1.29	1.08	1.48	inactive
38	MAPK12	SID442901003	-0.883	-0.696	-0.934	inactive
39	CXCL1	SID442887429	0.792	1.31	0.646	inactive
40	PPIAP59	SID442888828	0.993	0.511	0.459	inactive
41	LOC400134 (retired record)	SID442892412	0.493	-0.0915	0.111	inactive
42	YAP1	SID442895292	-1.21	0.397	0.345	inactive
43	INSL3	SID442893772	0.172	-0.164	0.0265	inactive
44	UQCC4	SID442889015	0.665	0.49	0.719	inactive
45	KALRN	SID442888256	0.0972	1.53	0.639	inactive
46	PPP1R3A	SID442888320	1.29	-0.0787	1.02	inactive

Ordered by “robust z-score, replicate 2” (lowest first): 3 of the entries above.
gene symbol	PubChem SID	robust z-score, replicate 1	robust z-score, replicate 2	robust z-score, replicate 3	call
ZFP30	SID442894385	0.598	-0.425	-0.349	inactive
LOC441336 (retired record)	SID442891212	0.593	0.231	0.124	inactive
LINC01120	SID442890994	0.102	0.371	0.558	inactive
